Numbered stars: 1 amine (or outer) side, 2 acyl side, 3 side chain; on linkers, the order of the positions; unused ones are H or OH. Bridge positions count the residues as written; N and C are the ends. Square brackets hold non-standard residues; d marks the D form. Peptide text beside a SMILES is read from it. I, II: the chains in the order shown. Actinocin(9to1) = Cc1c2oc3c(C)ccc(C(=O)[*:1])c3nc-2c(C(=O)[*:2])c(N)c1=O; NMeV = CN[C@H](C(=O)O)C(C)C; Sar = CNCC(=O)O
System: P388 lymphocytic leukemia
Test: In vivo P388 assay
Settings: optimal nontoxic dose; ip on days 1,5,9; 10^6 P388 cells ip in CDF1 male mice
Procedure: ^c 10^6 P388 cells implanted intraperitoneally on day 0 into a
group of 7 CDF1 male mice. Drugs were administered, also ip, in 10%
Me2 SO--saline on days 1,5,9. Test solutions were kept at 0-4.degree
C., protected from light.
These analogues were tested for antitumor activity against P388 lymphocytic leukemia in male CDF1 hybrid mice (Table 6). The tumor was implanted intraperitoneally (ip) with 10^6 cells. The drugs were administered once daily on days 1, 5, 9 beginning 1 day after implantation.

| Compound | Optimum Dose [mg/kg] |
| --- | --- |
| Cc1c2oc3c(C)ccc(C(=O)N[C@@H]4C(=O)N[C@H](C(C)C)C(=O)N5CCC[C@H]5C(=O)N(C)CC(=O)N(C)[C@@H](C(C)C)C(=O)O[C@@H]4C)c3nc-2c(C(=O)N[C@@H]2C(=O)N[C@H](C(C)C)C(=O)N3CCC[C@H]3C(=O)N(C)CC(=O)N(C)[C@@H](C(C)C)C(=O)O[C@@H]2C)c(N)c1=O [Compound 1a, Actinomycin D, reference compound] (I: T[dV]P[Sar][NMeV] / II: T[dV]P[Sar][NMeV]; ester I:1-I:C, II:1-II:C; linker I:N-II:N via Actinocin(9to1)) | 0.125 |
| Cc1ccc(C(=O)N[C@@H]2C(=O)N[C@H](C(C)C)C(=O)N3CCC[C@H]3C(=O)N(C)CC(=O)N(C)[C@@H](C(C)C)C(=O)O[C@@H]2C)c2c1Oc1c(c(C(=O)N[C@@H]3C(=O)N[C@H](C(C)C)C(=O)N4CCC[C@H]4C(=O)N(C)CC(=O)N(C)[C@@H](C(C)C)C(=O)O[C@@H]3C)c3nc(-c4ccccc4)c(=O)oc3c1C)N2 [Compound 2b] | 0.6 |
| Cc1ccc(C(=O)N[C@@H]2C(=O)N[C@H](C(C)C)C(=O)N3CCC[C@H]3C(=O)N(C)CC(=O)N(C)[C@@H](C(C)C)C(=O)O[C@@H]2C)c2c1Oc1c(c(C(=O)N[C@@H]3C(=O)N[C@H](C(C)C)C(=O)N4CCC[C@H]4C(=O)N(C)CC(=O)N(C)[C@@H](C(C)C)C(=O)O[C@@H]3C)c3nc(-c4ccccc4Cl)c(=O)oc3c1C)N2 [Compound 2c] | 1.2 |
| Cc1ccc(C(=O)N[C@@H]2C(=O)N[C@H](C(C)C)C(=O)N3CCC[C@H]3C(=O)N(C)CC(=O)N(C)[C@@H](C(C)C)C(=O)O[C@@H]2C)c2c1Oc1c(c(C(=O)N[C@@H]3C(=O)N[C@H](C(C)C)C(=O)N4CCC[C@H]4C(=O)N(C)CC(=O)N(C)[C@@H](C(C)C)C(=O)O[C@@H]3C)c3nc(-c4cccc(Cl)c4)c(=O)oc3c1C)N2 [Compound 2d] | 0.6 |
| Cc1ccc(C(=O)N[C@@H]2C(=O)N[C@H](C(C)C)C(=O)N3CCC[C@H]3C(=O)N(C)CC(=O)N(C)[C@@H](C(C)C)C(=O)O[C@@H]2C)c2c1Oc1c(c(C(=O)N[C@@H]3C(=O)N[C@H](C(C)C)C(=O)N4CCC[C@H]4C(=O)N(C)CC(=O)N(C)[C@@H](C(C)C)C(=O)O[C@@H]3C)c3nc(-c4ccc(Cl)cc4)c(=O)oc3c1C)N2 [Compound 2e] | 0.6 |
| Cc1ccc(C(=O)N[C@@H]2C(=O)N[C@H](C(C)C)C(=O)N3CCC[C@H]3C(=O)N(C)CC(=O)N(C)[C@@H](C(C)C)C(=O)O[C@@H]2C)c2c1Oc1c(c(C(=O)N[C@@H]3C(=O)N[C@H](C(C)C)C(=O)N4CCC[C@H]4C(=O)N(C)CC(=O)N(C)[C@@H](C(C)C)C(=O)O[C@@H]3C)c3nc(-c4ccc(Cl)cc4Cl)c(=O)oc3c1C)N2 [Compound 2f] | 1.2 |
| Cc1ccc(C(=O)N[C@@H]2C(=O)N[C@H](C(C)C)C(=O)N3CCC[C@H]3C(=O)N(C)CC(=O)N(C)[C@@H](C(C)C)C(=O)O[C@@H]2C)c2c1Oc1c(c(C(=O)N[C@@H]3C(=O)N[C@H](C(C)C)C(=O)N4CCC[C@H]4C(=O)N(C)CC(=O)N(C)[C@@H](C(C)C)C(=O)O[C@@H]3C)c3nc(-c4c(F)c(F)c(F)c(F)c4F)c(=O)oc3c1C)N2 [Compound 2g] | 1.8 |
| CCCCCCc1nc2c(C(=O)N[C@@H]3C(=O)N[C@H](C(C)C)C(=O)N4CCC[C@H]4C(=O)N(C)CC(=O)N(C)[C@@H](C(C)C)C(=O)O[C@@H]3C)c3c(c(C)c2oc1=O)Oc1c(C)ccc(C(=O)N[C@@H]2C(=O)N[C@H](C(C)C)C(=O)N4CCC[C@H]4C(=O)N(C)CC(=O)N(C)[C@@H](C(C)C)C(=O)O[C@@H]2C)c1N3 [Compound 2h] | 1.2 |
| Cc1ccc(C(=O)N[C@@H]2C(=O)N[C@H](C(C)C)C(=O)N3CCC[C@H]3C(=O)N(C)CC(=O)N(C)[C@@H](C(C)C)C(=O)O[C@@H]2C)c2c1Oc1c(c(C(=O)N[C@@H]3C(=O)N[C@H](C(C)C)C(=O)N4CCC[C@H]4C(=O)N(C)CC(=O)N(C)[C@@H](C(C)C)C(=O)O[C@@H]3C)c3nc(-c4ccc5ccccc5c4)c(=O)oc3c1C)N2 [Compound 2i, 3-(2-NAPHTHYL)-10,12-DIMETHYL-2H,6H-OXAZINO[3,2-b]PHENOXAZINE-2-ONE 5,7-BIS[CARBONYL-L-THREONYL-D-VALYL-L-PROLYLSARCOSYL-L-N-METHYLVALINE-(THR EONINE HYDROXYL)] LACTONE] | 1.2 |
| Cc1nc2c(C(=O)N[C@@H]3C(=O)N[C@H](C(C)C)C(=O)N4CCC[C@H]4C(=O)N(C)CC(=O)N(C)[C@@H](C(C)C)C(=O)O[C@@H]3C)c3c(c(C)c2o1)Oc1c(C)ccc(C(=O)N[C@@H]2C(=O)N[C@H](C(C)C)C(=O)N4CCC[C@H]4C(=O)N(C)CC(=O)N(C)[C@@H](C(C)C)C(=O)O[C@@H]2C)c1N3 [Compound 3a] | 1.2 |
| Cc1ccc(C(=O)N[C@@H]2C(=O)N[C@H](C(C)C)C(=O)N3CCC[C@H]3C(=O)N(C)CC(=O)N(C)[C@@H](C(C)C)C(=O)O[C@@H]2C)c2c1Oc1c(c(C(=O)N[C@@H]3C(=O)N[C@H](C(C)C)C(=O)N4CCC[C@H]4C(=O)N(C)CC(=O)N(C)[C@@H](C(C)C)C(=O)O[C@@H]3C)c3nc(-c4ccccc4)oc3c1C)N2 [Compound 3b, 2-PHENYL-9,11-DIMETHYL-5H-OXAZOLO[4,5-b]PHENOXAZINE 4,6-BIS[CARBONYL-L-THREONYL-D-VALYL-L-PROLYLSARCOSYL-L-N-METHYL-VALINE-(TH REONINE HYDROXYL)] LACTONE] | 0.9 |
| Cc1ccc(C(=O)N[C@@H]2C(=O)N[C@H](C(C)C)C(=O)N3CCC[C@H]3C(=O)N(C)CC(=O)N(C)[C@@H](C(C)C)C(=O)O[C@@H]2C)c2c1Oc1c(c(C(=O)N[C@@H]3C(=O)N[C@H](C(C)C)C(=O)N4CCC[C@H]4C(=O)N(C)CC(=O)N(C)[C@@H](C(C)C)C(=O)O[C@@H]3C)c3nc(-c4c(F)c(F)c(F)c(F)c4F)oc3c1C)N2 [Compound 3c] | 1.8 |
| Cc1c2oc3c(C)c4oc(-c5ccccc5)nc4c(C(=O)N[C@@H]4C(=O)N[C@H](C(C)C)C(=O)N5CCC[C@H]5C(=O)N(C)CC(=O)N(C)[C@@H](C(C)C)C(=O)O[C@@H]4C)c3nc-2c(C(=O)N[C@@H]2C(=O)N[C@H](C(C)C)C(=O)N3CCC[C@H]3C(=O)N(C)CC(=O)N(C)[C@@H](C(C)C)C(=O)O[C@@H]2C)cc1=O [Compound 4b, 2-PHENYL-9,11-DIMETHYL-8-OXO-8H-OXAZOLO[4,5-b]PHENOXAZINE 4,6-BIS[CARBONYL-L-THREONYL-D-VALYL-L-PROLYLSARCOSYL-L-N-METHYLVALINE-(THR EONINE HYDROXYL)] LACTONE] | 0.75 |
| Cc1c2oc3c(C)c4oc(-c5c(F)c(F)c(F)c(F)c5F)nc4c(C(=O)N[C@@H]4C(=O)N[C@H](C(C)C)C(=O)N5CCC[C@H]5C(=O)N(C)CC(=O)N(C)[C@@H](C(C)C)C(=O)O[C@@H]4C)c3nc-2c(C(=O)N[C@@H]2C(=O)N[C@H](C(C)C)C(=O)N3CCC[C@H]3C(=O)N(C)CC(=O)N(C)[C@@H](C(C)C)C(=O)O[C@@H]2C)cc1=O [Compound 4c] | 0.9 |

Reference: patent US4562176A, “Method and composition for treating cancer” (priority 1985, dated 1985)
